Experimental data: article PMC13043812
Results are given in words; binding and its absence hold for the method and conditions named. Binding seen in cells or lysates may run through a third protein. A yes stands for co-enrichment or nearness to the bait. Other partners may have been found.

Protein sequences, listed by entry. Tags and fused reporters are not part of them. Lines headed by an entry give the natural chain unless they say otherwise; changes in a name come on top.
UniProt P96874: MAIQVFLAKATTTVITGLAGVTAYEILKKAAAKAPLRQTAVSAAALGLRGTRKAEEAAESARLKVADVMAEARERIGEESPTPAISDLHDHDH

B1: CtpC, metal cation transporter P-type ATPase (protein, UniProt P9WPT5 1-718)
chain: MTLEVVSDAAGRMRVKVDWVRCDSRRAVAVEEAVAKQNGVRVVHAYPRTGSVVVWYSPRRADRAAVLAAIKGAAHVAAELIPARAPHSAEIRNTDVLRMVIGGVALALLGVRRYVFARPPLLGTTGRTVATGVTIFTGYPFLRGALRSLRSGKAGTDALVSAATVASLILRENVVALTVLWLLNIGEYLQDLTLRRTRRAISELLRGNQDTAWVRLTDPSAGSDAATEIQVPIDTVQIGDEVVVHEHVAIPVDGEVVDGEAIVNQSAITGENLPVSVVVGTRVHAGSVVVRGRVVVRAHAVGNQTTIGRIISRVEEAQLDRAPIQTVGENFSRRFVPTSFIVSAIALLITGDVRRAMTMLLIACPCAVGLSTPTAISAAIGNGARRGILIKGGSHLEQAGRVDAIVFDKTGTLTVGRPVVTNIVAMHKDWEPEQVLAYAASSEIHSRHPLAEAVIRSTEERRISIPPHEECEVLVGLGMRTWADGRTLLLGSPSLLRAEKVRVSKKASEWVDKLRRQAETPLLLAVDGTLVGLISLRDEVRPEAAQVLTKLRANGIRRIVMLTGDHPEIAQVVADELGIDEWRAEVMPEDKLAAVRELQDDGYVVGMVGDGINDAPALAAADIGIAMGLAGTDVAVETADVALANDDLHRLLDVGDLGERAVDVIRQNYGMSIAVNAAGLLIGAGGALSPVLAAILHNASSVAVVANSSRLIRYRLDR
B2: MoeX, molybdopterin biosynthesis protein (protein, UniProt A5U339 1-330)
chain: MIIELMRRVVGLAQGATAEVAVYGDRDRDLAERWCANTGNTLVRADVDQTGVGTLVVRRGHPPDPASVLGPDRLPGVRLWLYTNFHCNLCCDYCCVSSSPSTPHRELGAERIGRIVGEAARWGVRELFLTGGEPFLLPDIDTIIATCVKQLPTTVLTNGMVFKGRGRRALESLPRGLALQISLDSATPELHDAHRGAGTWVKAVAGIRLALSLGFRVRVAATVASPAPGELTAFHDFLDGLGIAPGDQLVRPIALEGAASQGVALTRESLVPEVTVTADGVYWHPVAATDERALVTRTVEPLTPALDMVSRLFAEQWTRAAEEAALFPCA
B3: Rv2083 (protein, UniProt P9WLK3 1-314)
chain: MTSIESHPEQYWAAAGRPGPVPLALGPVHPGGPTLIDLLMALFGLSTNADLGGANADIEGDDTDRRAHAADAARKFSANEANAAEQMQGVGAQGMAQMASGIGGALSGALGGVMGPLTQLPQQAMQAGQGAMQPLMSAMQQAQGADGLAAVDGARLLDSIGGEPGLGSGAGGGDVGGGGAGGTTPTGYLGPPPVPTSSPPTTPAGAPTKSATMPPPGGASPASAHMGAAGMPMVPPGAMGARGEGSGQEKPVEKRLTAPAVPNGQPVKGRLTVPPSAPTTKPTDGKPVVRRRILLPEHKDFGRIAPDEKTDAGE
B4: Alkyl hydroperoxide reductase subunit C (protein, UniProt P9WQB7 1-195)
chain: MPLLTIGDQFPAYQLTALIGGDLSKVDAKQPGDYFTTITSDEHPGKWRVVFFWPKDFTFVCPTEIAAFSKLNDEFEDRDAQILGVSIDSEFAHFQWRAQHNDLKTLPFPMLSDIKRELSQAAGVLNADGVADRVTFIVDPNNEIQFVSATAGSVGRNVDEVLRVLDALQSDELCACNWRKGDPTLDAGELLKASA

What follows are binders tested against PacL1 protein fused to an internal ALFA tag (M. tuberculosis) (UniProt P96874) (assay: proximity labelling).
For B1, the binding was “binds”.
For B2, the binding was “binds”.
With B3 the binding was “binds”.
With B4 the binding was “binds”.

These binders were tested against PacL1 protein fused to a C-terminal ALFA tag (M. tuberculosis) (UniProt P96874) (assay: proximity labelling).
In the case of B1, the binding is reported as “binds”.
B2 was tested, and the binding was “binds”.
B3 was tested, and the binding was “binds”.
With B4 the binding was “binds”.
